Source: US20240084023A1 (NGM BIOPHARMACEUTICALS, published 2024)
Results are given in words; binding and its absence hold for the method and conditions named. Some results given as binding are weak or reduced against the parent protein; the word gives no strength.

The chains behind the UniProt entries cited, without tags or fusion partners. Where a name states a change or a piece, a line headed by the entry shows the natural chain unless it says otherwise.
UniProt P47871: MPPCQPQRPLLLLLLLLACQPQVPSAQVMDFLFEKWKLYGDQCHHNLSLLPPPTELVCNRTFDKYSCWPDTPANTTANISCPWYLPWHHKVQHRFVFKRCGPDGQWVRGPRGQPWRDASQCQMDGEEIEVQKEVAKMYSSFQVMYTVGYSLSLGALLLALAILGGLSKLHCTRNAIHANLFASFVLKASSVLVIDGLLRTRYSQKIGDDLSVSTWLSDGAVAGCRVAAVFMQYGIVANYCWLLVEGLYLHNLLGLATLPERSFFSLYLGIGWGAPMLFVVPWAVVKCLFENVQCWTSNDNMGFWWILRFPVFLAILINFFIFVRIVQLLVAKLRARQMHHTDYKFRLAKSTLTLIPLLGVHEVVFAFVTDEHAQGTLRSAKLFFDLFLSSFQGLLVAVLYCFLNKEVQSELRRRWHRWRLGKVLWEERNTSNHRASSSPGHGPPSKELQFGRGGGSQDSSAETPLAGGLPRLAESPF

Target: T1, soluble human GCGR extracellular domain (human, UniProt P47871 26-136, limits assumed)
T1 construct: also called soluble GCGR
Assay: Octet, antibody immobilized on biosensor tip, 500 nM soluble human GCGR extracellular domain

Row | Binder | binding
1 | anti-GCGR antibody 1H2 (antibody, V domains shown, mouse hybridoma monoclonal antibody) VH: QVQLQQPGAELVKPGASVKMSCKVSGYTFTSYWITWVKQRPGQGLEWIGDIHPGGGDTNYNKKFKSKATLTVDTSSSTAYMQLSSLTSEDSAVYHCTSDDNYVGFTYWGQGTLVTVSA VL: DVLMTQTPLSLPVSLGDQASISCRSSQTIIHSDGNTYLEWYLQKPGQSPILLIYKVSNRFSGVPDRFSGSGSGTDFTLKISRVEAEDLGVYYCFQGSHVPWTFGGGTKLEIK | binds
2 | anti-GCGR antibody 1C1 (antibody, V domains shown, mouse hybridoma monoclonal antibody) VH: EVQLQQSGPELVKPGATVKMSCKASGYTFTRNVIHWVKQKPGQGLEWIGYINPYNDGAKYNAKFKGKATVTSDKSSSTAYMELSSLTSEDSAVYYCARWGNYEDFAMDYWGQGTSVTVSS VL: NIVLTQSPPSLAVSLGQRATISCRASESVDIYGNSYMHWYQQKPGQPPKLLIYLASNLESGVPARFSGSGSRTEFSLTIDPVEAGDAATYYCQQNNEDPFTFGGGTKLEIK | binds
3 | anti-GCGR antibody 6B5 (antibody, V domains shown, mouse hybridoma monoclonal antibody; also called 61B5) VH: QVQLQQSGTELVRPGTSVKISCKASGFTFTNHWLGWVKQRPGHGLEWIGDIYPGGYYINYNEKFKGKATLTADTSSSTAYMQLSSLTSEDSAVYFCARHTNYGSDYWGQGTTLTVSS VL: DVLMTQIPLSLPVSLGDQASISCRSSQSIVDSYGNTFLEWYLQKPGQSPKLLIYKVSNRLSGVPDRFSGTGAGTDFTLKISRVEAEDLGIYYCFQGSHVPWTFGGGTKLEIK | binds
4 | anti-GCGR antibody 4F8 (antibody, V domains shown, mouse hybridoma monoclonal antibody) VH: QVQLQQSGAELVRPGTSVTMSCKAAGYTFSNYWIGWVKQRPGHGLEWIGDIYPGGFYDNYNDKFKGKATLTTDTSSSTAYMQLSSLTSEDSAIYYCTRSGGLPGAGFTYWGQGTLVTVSA VL: DVLMTQTPLSLPVSLGDQASISCRSSQHIVYSDGNTYLEWYLQKPGQSPKLLIYKVSNRFSGVPDRFSGSGSGTDFTLEISRVEAEDLGVYYCFQGSHVPWTFGGGTKLEIK | binds
5 | anti-GCGR antibody 1C3 (antibody, V domains shown, mouse hybridoma monoclonal antibody) VH: EVQLQQSGPELVKPGASVKMSCKASGYTFTSSVMHWVKQKPGQALEWIGYINPYNDGTKYNENFKGKATLTSDRSSTTAYMELSSLTSEDSAVYYCVTGAGYDRGPMAMDYWGQGTSVTVSS VL: NIVLTQSPASLAVSLGQRATISCRASESVDSYGDSFVHWYQQKPGQPPKLLIYFASNLESGVPARFSGSGSRTDFTLTIDPVEADDTATYYCQQNNEVPFTFGSGTKLELK | binds

Results, then the binder that gave them:

Row | binding | Binder
6 | binds | anti-GCGR antibody 13G9 (antibody, V domains shown, mouse hybridoma monoclonal antibody; also called 13G19) VH: QVQLQQSGAELVRPGTSVKISCKASGYTFTNYWLGWVKQRPGHGLEWIGDIYPGGDYNNYNGKFKGKATLTADTSSSTAYIQLSSLTSEDSAVYFCVRSDDGYSWGQGTTLTVSS VL: DVLMTQTPLSLPVSLGDQASISCRSSQSIVDSYGNTYLEWYQQKPGQSPTLLIYKVSNRFAGVPDRFSGSGSGTDFTLKISRVEAEDLGVYYCFQGSHIPWTFGGGTKVEIK
7 | binds | anti-GCGR antibody 14F4 (antibody, V domains shown, mouse hybridoma monoclonal antibody; also called 141F4) VH: QVQLQQSGAELVRPGTSVNMSCKATGYTFTNYWIGWVKQRPGHGLEWIGDIFPGGFYSNYNEKFKGKATLTTDTSSSTGYMQLSSLTSEDSAIYYCARIWDRGFDYWGQGTTLTVSS VL: DVLMTQSPLSLPVSLGDQASISCRSSQSIVDSYGNTYLEWYLQKPGQSPKLLIYKVSNRFSGVPDRFSGSGSGTDFTLKISRVEAEDRGLYYCFQGSHVPYTFGGGTKLEIK
8 | binds | anti-GCGR antibody 14E9 (antibody, V domains shown, mouse hybridoma monoclonal antibody; also called 13E9) VH: QVQLQQSGAELVRPGTSVKMSCKAAGYTFTNYWIGWVKQRPGHGLEWIGDISPGNYYTNYNAKFKDKVSLTADTSSSTAYMQLSSLTSEDSAIYYCARYDEFAYWGQGTLVTVSA VL: DVLMTQTPLSLSVSLGDQASISCRSSQSIVHSDGNTYLEWYLQKPGQSPKLLIYKVSNRFSGVPDRFSGSGSGTDFTLKISRVEAEDLGVYYCFQGSHVPWTFGGGTKLEIK
